Source: PMC6004359

The chains behind the UniProt entries cited, without tags or fusion partners. Where a name states a change or a piece, a line headed by the entry shows the natural chain unless it says otherwise. A line that says so, or that is headed by a name, gives the form on record, which may keep a tag or linker. Residues count along the entry.
wild-type KIT (expressed in Ba/F3 cells) (P10721, residues 26-976): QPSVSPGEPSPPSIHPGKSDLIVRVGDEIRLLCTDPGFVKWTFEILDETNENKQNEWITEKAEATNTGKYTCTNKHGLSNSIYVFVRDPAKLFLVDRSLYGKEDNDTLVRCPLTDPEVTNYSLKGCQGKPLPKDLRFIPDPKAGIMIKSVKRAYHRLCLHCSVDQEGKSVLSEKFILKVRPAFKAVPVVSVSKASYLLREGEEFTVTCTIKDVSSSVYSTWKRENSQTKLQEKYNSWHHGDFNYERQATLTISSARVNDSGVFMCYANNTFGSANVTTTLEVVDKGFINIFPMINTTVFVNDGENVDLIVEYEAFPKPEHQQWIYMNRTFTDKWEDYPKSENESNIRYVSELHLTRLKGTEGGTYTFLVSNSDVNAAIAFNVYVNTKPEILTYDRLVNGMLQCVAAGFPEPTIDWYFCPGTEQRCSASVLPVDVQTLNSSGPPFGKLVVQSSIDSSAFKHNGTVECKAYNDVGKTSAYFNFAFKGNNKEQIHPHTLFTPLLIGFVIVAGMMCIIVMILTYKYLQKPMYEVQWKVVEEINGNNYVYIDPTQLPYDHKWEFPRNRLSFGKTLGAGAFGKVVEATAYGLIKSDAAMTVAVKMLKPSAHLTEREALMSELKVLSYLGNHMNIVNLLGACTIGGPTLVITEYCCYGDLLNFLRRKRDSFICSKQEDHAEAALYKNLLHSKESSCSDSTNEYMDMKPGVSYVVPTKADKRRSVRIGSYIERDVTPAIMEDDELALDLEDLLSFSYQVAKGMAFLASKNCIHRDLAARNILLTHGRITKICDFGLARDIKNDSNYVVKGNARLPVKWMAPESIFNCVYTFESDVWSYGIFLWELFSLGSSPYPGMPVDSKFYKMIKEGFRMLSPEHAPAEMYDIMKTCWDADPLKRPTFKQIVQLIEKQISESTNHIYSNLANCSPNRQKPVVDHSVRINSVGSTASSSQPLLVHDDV
KIT/D816V (expressed in Ba/F3 cells) (P10721, form named): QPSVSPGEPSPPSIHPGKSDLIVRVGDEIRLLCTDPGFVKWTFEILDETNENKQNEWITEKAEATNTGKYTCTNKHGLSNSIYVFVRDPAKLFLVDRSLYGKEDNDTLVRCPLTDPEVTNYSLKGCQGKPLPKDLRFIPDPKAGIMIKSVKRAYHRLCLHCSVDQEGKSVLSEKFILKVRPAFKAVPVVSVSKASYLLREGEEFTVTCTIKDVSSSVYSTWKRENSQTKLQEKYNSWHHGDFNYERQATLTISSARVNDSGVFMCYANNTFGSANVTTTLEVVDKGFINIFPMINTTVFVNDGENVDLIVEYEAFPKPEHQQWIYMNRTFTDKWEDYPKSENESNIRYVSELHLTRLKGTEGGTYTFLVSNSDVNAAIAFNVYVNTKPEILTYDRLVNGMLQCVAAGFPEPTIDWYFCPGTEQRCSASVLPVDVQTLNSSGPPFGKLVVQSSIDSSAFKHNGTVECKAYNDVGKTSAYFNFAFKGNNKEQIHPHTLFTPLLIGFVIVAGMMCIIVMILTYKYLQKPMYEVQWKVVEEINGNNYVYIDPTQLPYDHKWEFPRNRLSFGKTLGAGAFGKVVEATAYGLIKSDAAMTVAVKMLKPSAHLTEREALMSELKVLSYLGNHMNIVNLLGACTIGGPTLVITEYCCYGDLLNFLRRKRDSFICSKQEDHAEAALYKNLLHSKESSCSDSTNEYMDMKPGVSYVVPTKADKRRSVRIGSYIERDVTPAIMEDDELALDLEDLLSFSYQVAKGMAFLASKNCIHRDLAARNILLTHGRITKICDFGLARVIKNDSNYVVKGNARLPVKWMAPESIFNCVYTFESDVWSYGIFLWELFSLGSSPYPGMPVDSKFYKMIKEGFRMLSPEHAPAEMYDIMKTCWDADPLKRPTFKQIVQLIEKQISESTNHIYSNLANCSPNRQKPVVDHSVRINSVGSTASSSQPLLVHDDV

Legend:
[1] = target: KIT/D816V (expressed in Ba/F3 cells) (human) (UniProt P10721); experiment: affinity purification with mass spectrometry; 900 million Ba/F3 cells expressing wild-type KIT or KIT/D816V, starved 4 h, SCF 100 ng/ml 2 min; lysis in 1% Triton X-100, 25 mM Tris pH 7.5, 150 mM NaCl, 5 mM EDTA, 10% glycerol; KitC1 antibody and protein G Dyna beads at 4 °C; SDS-PAGE, Coomassie, bands excised for mass spectrometry
[2] = target: wild-type KIT (expressed in Ba/F3 cells) (human) (UniProt P10721); experiment: as above

binding [1]: binds | binding [2]: no binding
B1: XK-related protein 5 (XKR5), endogenous in Ba/F3 cells (protein, UniProt Q5GH66 1-676)
chain: MHAGLLGLSALLQAAEQSARLCSIVFYFATGRLLWGWLALSVLLPGFLVQALSFLWFRADGHQGQWWLAVLHLLQLGVWKRHWDSVATALWKGKEAPSWGQLHLQEADLSALRLLEALLQTGPHLLLQAYVFLASDFTDIVPGISALLSWSSLSWALVSYNRFLGIMKPGHHTMLWAALLCQQLWRMGMLGARVLSLVLFCRVYRVWVLVVGGAHWLVMTFWLVAQQSDIVESTCHWRLFNLLVGAVFILCYINFWDSPSRSRVASFYLVMLLENSILLLLATDFLQGVPGTSLWTVVGVLSGFLIGCASLVIYYSLLHPKSSDIQQSFMRKCCGPIEDNKPESEPPPRAVDPTGEMPDSSSWCQEESYELTSLDKAPSPEQNTAEVGLGEQRSGESSFFSHHHWLLLKLALKTGSVSRINAALGGDSPGCSCPPLLGSSQHCDLQRKPLFSHQDLPSSPCDPLTLEKGSEYVGAPKAEMESLETSSYLSFASELEDNATTQKPPATQEDSPKLAGSKADLAAQGKETEGPLQGKEGQESTTLYFSAAMDRTTSHQRGSPVVLRISHSETLVESRPGQPALPQAVTKPFPVTVANISPIPGRNFRPSAELPGRAPDSSECEEWKDAARDPSMQSSLPKMRLKAAEEPCFTSTPKSESIQRDYSCRDRVRQEMSFFI

Results are given in words; binding and its absence hold for the method and conditions named. In cells and extracts the contact can be indirect. Here binding means that the protein was enriched with, or labelled near, the bait; the list need not be complete. For some assays here: A no says only that the protein was not detected with the bait.
